Reference: publication PMC12914539
Results are given in words; binding and its absence hold for the method and conditions named. Binding seen in cells or lysates may run through a third protein. A yes stands for co-enrichment or nearness to the bait. Other partners may have been found.

Protein sequences, listed by entry. Tags and fused reporters are not part of them. Residues count along the entry.
UniProt Q61527, residues 26-1308: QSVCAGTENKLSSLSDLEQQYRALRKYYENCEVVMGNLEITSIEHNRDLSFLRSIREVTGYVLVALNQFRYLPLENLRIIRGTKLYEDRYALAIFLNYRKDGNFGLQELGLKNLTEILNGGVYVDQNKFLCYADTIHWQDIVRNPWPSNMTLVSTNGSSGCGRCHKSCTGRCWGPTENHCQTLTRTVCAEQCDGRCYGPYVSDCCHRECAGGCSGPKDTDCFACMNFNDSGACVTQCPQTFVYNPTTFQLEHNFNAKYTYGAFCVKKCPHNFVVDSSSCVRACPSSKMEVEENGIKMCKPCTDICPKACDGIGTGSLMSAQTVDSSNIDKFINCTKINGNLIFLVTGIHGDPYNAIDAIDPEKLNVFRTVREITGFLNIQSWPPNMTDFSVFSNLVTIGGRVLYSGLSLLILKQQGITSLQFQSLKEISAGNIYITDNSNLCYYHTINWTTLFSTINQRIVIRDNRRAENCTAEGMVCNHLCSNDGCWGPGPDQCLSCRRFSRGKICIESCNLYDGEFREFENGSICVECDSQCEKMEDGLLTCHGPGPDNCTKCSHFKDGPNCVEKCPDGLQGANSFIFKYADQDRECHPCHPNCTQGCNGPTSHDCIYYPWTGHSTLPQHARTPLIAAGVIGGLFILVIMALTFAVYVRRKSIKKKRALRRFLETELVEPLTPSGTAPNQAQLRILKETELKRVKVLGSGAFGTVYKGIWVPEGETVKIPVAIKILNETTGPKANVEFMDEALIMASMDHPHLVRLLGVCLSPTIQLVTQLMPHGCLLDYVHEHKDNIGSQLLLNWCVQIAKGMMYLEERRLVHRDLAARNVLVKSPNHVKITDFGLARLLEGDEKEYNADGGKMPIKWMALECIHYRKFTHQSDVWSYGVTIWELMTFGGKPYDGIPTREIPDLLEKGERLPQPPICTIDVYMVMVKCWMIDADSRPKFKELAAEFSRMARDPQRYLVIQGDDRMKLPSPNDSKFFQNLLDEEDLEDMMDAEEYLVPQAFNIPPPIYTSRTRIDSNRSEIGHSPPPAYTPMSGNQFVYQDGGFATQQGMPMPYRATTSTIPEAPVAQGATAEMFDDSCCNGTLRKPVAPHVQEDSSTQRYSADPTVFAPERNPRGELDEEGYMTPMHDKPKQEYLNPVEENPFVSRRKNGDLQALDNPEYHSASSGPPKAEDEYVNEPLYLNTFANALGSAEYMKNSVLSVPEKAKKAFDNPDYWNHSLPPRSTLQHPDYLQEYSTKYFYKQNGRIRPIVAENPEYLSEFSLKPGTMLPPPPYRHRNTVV
UniProt P46938: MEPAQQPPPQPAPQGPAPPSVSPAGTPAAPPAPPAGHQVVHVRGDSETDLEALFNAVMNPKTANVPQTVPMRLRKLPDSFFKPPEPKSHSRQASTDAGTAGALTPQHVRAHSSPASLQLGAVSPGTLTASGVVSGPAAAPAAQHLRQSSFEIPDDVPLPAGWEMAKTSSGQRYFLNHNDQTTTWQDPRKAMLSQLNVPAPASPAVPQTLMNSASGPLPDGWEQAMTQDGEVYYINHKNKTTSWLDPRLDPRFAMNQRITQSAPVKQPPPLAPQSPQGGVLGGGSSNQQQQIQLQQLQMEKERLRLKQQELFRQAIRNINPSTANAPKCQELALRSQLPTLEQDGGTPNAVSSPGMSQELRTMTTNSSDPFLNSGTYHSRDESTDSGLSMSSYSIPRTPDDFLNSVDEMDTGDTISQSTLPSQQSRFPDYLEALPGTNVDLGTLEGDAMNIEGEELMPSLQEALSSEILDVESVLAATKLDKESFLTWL
UniProt P97807, residues 42-507: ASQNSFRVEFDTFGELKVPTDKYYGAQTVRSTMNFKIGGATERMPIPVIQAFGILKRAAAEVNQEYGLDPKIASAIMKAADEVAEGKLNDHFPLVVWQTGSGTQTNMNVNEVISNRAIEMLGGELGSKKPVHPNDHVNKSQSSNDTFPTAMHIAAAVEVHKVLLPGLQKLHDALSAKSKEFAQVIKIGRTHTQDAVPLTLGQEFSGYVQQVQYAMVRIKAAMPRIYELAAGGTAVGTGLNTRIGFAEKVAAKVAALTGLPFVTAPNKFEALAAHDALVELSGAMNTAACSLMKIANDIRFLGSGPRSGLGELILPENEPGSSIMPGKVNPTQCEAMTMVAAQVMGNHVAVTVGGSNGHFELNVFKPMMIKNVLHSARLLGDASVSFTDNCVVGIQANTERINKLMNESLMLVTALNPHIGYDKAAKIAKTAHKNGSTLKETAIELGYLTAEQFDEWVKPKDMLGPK

Molecular target: Erb-B2 receptor tyrosine kinase 4 (ERBB4) (mouse (endogenous in 4T1)) (UniProt Q61527)
Test: affinity purification with mass spectrometry; co-immunoprecipitation with an ERBB4 antibody in 4T1 cells, silver staining, LC/MS of specific bands; with or without rNRG4 for 24 h

| binding | Molecule |
| --- | --- |
| binds | Yap1 (from UniProt P46938 1-488) |
| binds | Fh (from UniProt P97807 42-507) |
| binds | Ywhag (protein, UniProt P61982 1-247) MVDREQLVQKARLAEQAERYDDMAAAMKNVTELNEPLSNEERNLLSVAYKNVVGARRSSWRVISSIEQKTSADGNEKKIEMVRAYREKIEKELEAVCQDVLSLLDNYLIKNCSETQYESKVFYLKMKGDYYRYLAEVATGEKRATVVESSEKAYSEAHEISKEHMQPTHPIRLGLALNYSVFYYEIQNAPEQACHLAKTAFDDAIAELDTLNEDSYKDSTLIMQLLRDNLTLWTSDQQDDDGGEGNN |
